From the supplement of paper PMC7024190
Structures can show the parent of a compound that is named as a salt. Some of the results follow. Repeats in this data set agree poorly, so a single value says little.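 The cells were human embryonic kidney cells carrying a Renilla luciferase gene, driven by the HSV-TK promoter, on a plasmid put in briefly by transfection. This is the first-round screen of about ten thousand compounds, looking for ones that raise reporter output.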

Test system: HEK 293FT
Assay: log relative Renilla luciferase luminescence (reporter expression vs reference, reference not stated) (log (base not stated)); higher = higher recombinant reporter expression
Conditions: 10 µM; time after transfection 48 h

SMILES	log
CCCc1nn(C)c2c(=O)[nH]c(-c3cc(S(=O)(=O)N4CCN(C)CC4)ccc3OCC)nc12 [sildenafil citrate]	-0.231
CC(O)(CC(=O)O)CC(=O)O [meglutol]	-0.0639
O=C1CC[C@]23/C=C/C(=O)NCCCCNCCCNC(=O)/C=C/c4ccc(c2c4)O[C@@H]3C1 [lunarine]	0.00792
CCCCS(=N)(=O)CCC(N)C(=O)O (stereo not drawn) [l-buthionine sulfoximine]	0.0358
C[C@@H]1CN(c2c(F)c(F)c3c(=O)c(C(=O)O)cn(C4CC4)c3c2F)C[C@H](C)N1 [orbifloxacin]	0.0323
CCC(C)(C)C(=O)O[C@H]1C[C@@H](C)C=C2C=C[C@H](C)[C@H](CC[C@@H]3C[C@@H](O)CC(=O)O3)[C@H]21 [simvastatin]	-0.0484
CCOC(=O)CC(=O)N1CCSC1COc1ccccc1OC (stereo unspecified) [moguisteine]	0.102
CC(=O)Oc1ccc(C(c2ccc(OC(C)=O)cc2)c2ccccn2)cc1 [bisacodyl]	-0.435
CC1(C)CC2C1CC[C@]1(CBr)CCC3C(CC(=O)O)C(=O)O[C@@]32C1 (stereo partly specified) [bromo-3-hydroxy-4-(succin-2-yl)-caryolane gamma-lactone]	0.0037
CC(=O)[C@@]1(O)CC[C@H]2[C@@H]3CCC4=CC(=O)CC[C@]4(C)[C@H]3CC[C@@]21C [hydroxyprogesterone]	0.00103
COC(=O)C(OC)=C(OC)c1ccccc1OC [methyl trimethoxycinnamate]	0.227
O=C(c1ccc(F)cc1)C1CCN(CCn2c(=O)[nH]c3ccccc3c2=O)CC1 [ketanserin tartrate]	0.074
CCN(CC)C(=O)c1ccc(O)c(OC)c1 [ethamivan]	0.18
COc1ccc(-c2cc(=O)c3c(O)c(OC)c(OC)c(OC)c3o2)cc1 [gardenin b]	-0.0396
Oc1cc2c(cc1O)C1c3ccc(O)c(O)c3OCC1(O)C2 (stereo unspecified) [haematoxylin]	0.152
CC(=O)O[C@@H]1C[C@H]2C(C)(C)C(=O)C=C[C@]2(C)[C@H]2CC[C@@]3(C)[C@H](c4ccoc4)OC(=O)[C@H]4O[C@]43[C@@]21C [gedunin]	-0.196
CCCOc1ccc2[nH]c(NC(=O)OC)nc2c1 [oxibendazole]	0.269
Cc1cc2nc3c(=O)[nH]c(=O)nc-3n(C[C@H](O)[C@H](O)[C@H](O)CO)c2cc1C [riboflavin]	0.0209
CC[C@H](C)[C@H]1O[C@]2(C=C[C@@H]1C)C[C@@H]1C[C@@H](C/C=C(\C)[C@@H](O[C@H]3C[C@H](OC)[C@@H](O[C@H]4C[C@H](OC)[C@@H](O)[C@H](C)O4)[C@H](C)O3)[C@@H](C)/C=C/C=C3\CO[C@@H]4[C@H](OC)C(C)=C[C@@H](C(=O)O1)[C@]34O)O2 [avermectin a1a]	-0.977
CN(C)CCOC(c1ccccc1)c1ccccc1.Cn1c(=O)c2[nH]c(Cl)nc2n(C)c1=O [dimenhydrinate]	0.0336
O=C1NCC2(CCN(CCc3ccccc3)CC2)O1 [fenspiride hydrochloride]	-0.206
Clc1ccc2c(c1)CCc1cccnc1C2=C1CCNCC1 [desloratidine]	0.0139
COc1cc(C)c(C(=O)Oc2cc(C)c(C(=O)O)c(O)c2C)c(OC)c1C [diffractaic acid]	0.161
CC1(C)CC2C1CC[C@]1(C)CCC3C(C(=O)O)CC(=O)O[C@@]32C1 (stereo partly specified) [3-hydroxy-4-(succin-2-yl)-caryolane delta-lactone]	0.053

SMILES	log
CCN(CC)C(C)CN1c2ccccc2Sc2ccccc21 (stereo unspecified) [ethopropazine hydrochloride]	0.104
CCCNC(=O)NS(=O)(=O)c1ccc(Cl)cc1 [chlorpropamide]	-0.0396
CC(=O)O[C@]1(C(C)=O)CC[C@H]2[C@@H]3C=C(Cl)C4=CC(=O)CC[C@]4(C)[C@H]3CC[C@@]21C [chlormadinone acetate]	0.0832
Cc1cc(O)c(C(=O)N[C@@H](C(=O)N[C@@H]2C(=O)N3C(C(=O)O)=C(CSc4nnnn4C)CS[C@H]23)c2ccc(O)cc2)cn1 [cefpiramide]	-0.0526
CO[C@H]1/C=C/O[C@@]2(C)Oc3c(C)c(O)c4c(O)c(c5c(nc6cc(C)ccn65)c4c3C2=O)NC(=O)/C(C)=C\C=C\[C@H](C)[C@H](O)[C@@H](C)[C@@H](O)[C@@H](C)[C@H](OC(C)=O)[C@@H]1C [rifaximin]	0.0725
Clc1cccc(Cl)c1NC1=NCCN1 [clonidine hydrochloride]	-0.0923
C[C@]12C=CC(=O)N[C@@H]1CC[C@@H]1[C@@H]2CC[C@]2(C)[C@@H](C(=O)Nc3cc(C(F)(F)F)ccc3C(F)(F)F)CC[C@@H]12 [dutasteride]	-0.0102
CCCCCCCCCCCCCCCC(=O)OC[C@H](O)[C@H]1OC(=O)C(O)=C1O [ascorbyl palmitate]	-0.00459
Nc1nc2c(ncn2COC(CO)CO)c(=O)[nH]1 [ganciclovir]	-0.0168
NCCCCCC(=O)O [aminocaproic acid]	-0.0953
CC(=O)OC/C=C(\C)CC/C=C(\C)CC/C=C(\C)CC/C=C(\C)CC/C=C(\C)CC/C=C(\C)CC/C=C(\C)CC/C=C(\C)CCC=C(C)C [solanesyl acetate]	0.146
CN(C)C(=N)NC(=N)N [metformin hydrochloride]	-0.267
CC=CC(=O)N(CC)c1ccccc1C [crotamiton]	-0.114
CC1CC2C3CCC4=CC(=O)C=CC4(C)C3(F)C(O)CC2(C)C1C(=O)CO (stereo unspecified) [desoxymetasone]	-0.09
CNCCc1ccccn1 [betahistine hydrochloride]	-1.41
CC1=C(C)C(=O)C(C(CCCCCC(=O)O)c2ccccc2)=C(C)C1=O (stereo unspecified) [seratrodast]	0.00106
CC(C)NCC(O)COc1ccc(CC(N)=O)cc1 (stereo unspecified) [atenolol]	-0.00605
NC(Cn1ccc(=O)c(O)c1)C(=O)O (stereo unspecified) [mimosine]	-0.000568
CC(=O)N(CC(O)CO)c1c(I)c(C(=O)NCCO)c(I)c(C(=O)NCC(O)CO)c1I (stereo unspecified) [ioxilan]	0.0534
CN1CCN(CC(=O)N2c3ccccc3C(=O)Nc3cccnc32)CC1 [pirenzepine hydrochloride]	-0.0398
CC(=O)N(CC(O)CO)c1c(I)c(C(=O)NCC(O)CO)c(I)c(C(=O)NCC(O)CO)c1I (stereo unspecified) [iohexol]	0.0836
COC(=O)Nc1nc2cc(Sc3ccccc3)ccc2[nH]1 [fenbendazole]	-0.0952
Cn1c(=O)c2c(ncn2CC2OCCO2)n(C)c1=O [doxofylline]	0.122
CC[C@H](C)[C@H](N)C(=O)O [isoleucine (l)]	0.114

SMILES	log
O=c1[nH]cnc2nc[nH]c12 [hypoxanthine]	0.303
CCOc1nc2cccc(C(=O)O)c2n1Cc1ccc(-c2ccccc2-c2nnn[nH]2)cc1 [candesartan]	-0.0698
C[C@@](Cc1ccc(O)c(O)c1)(NN)C(=O)O [carbidopa]	0.0697
Nc1ncnc2c1ncn2[C@@H]1O[C@H](CO)[C@@H](O)[C@@H]1O [vidarabine]	-0.213
CCCCC(CC)COC(=O)CC(C(=O)OCC(CC)CCCC)S(=O)(=O)O (stereo unspecified) [docusate sodium]	-1.26
C[C@H]1C[C@H]2[C@@H]3CCC4=CC(=O)C=C[C@]4(C)[C@@]3(F)[C@@H](O)C[C@]2(C)[C@@]1(O)C(=O)COP(=O)(O)O [betamethasone sodium phosphate]	0.114
N#Cc1ccc2c(c1)N(CCCN1CCC(O)CC1)c1ccccc1S2 [periciazine]	0.00411
COc1cc(-c2ccc(/N=N/c3ccc4c(S(=O)(=O)O)cc(S(=O)(=O)O)c(N)c4c3O)c(OC)c2)ccc1/N=N/c1ccc2c(S(=O)(=O)O)cc(S(=O)(=O)O)c(N)c2c1O [chicago sky blue]	0.0267
CCC1(c2ccccc2)C(=O)NCNC1=O [primidone]	-0.00588
CN(C)CCC(c1ccc(Br)cc1)c1ccccn1 (stereo unspecified) [brompheniramine maleate]	0.272
O=C1CC[C@@H](C(=O)N2CSC[C@H]2C(=O)O)N1 [pidotimod]	0.00202
c1ccc(-c2ccc(C(c3ccccc3)n3ccnc3)cc2)cc1 (stereo unspecified) [bifonazole]	-0.032
Oc1c(Cl)cc(Cl)c2cccnc12 [chloroxine]	-1.04
C[C@]12CC[C@@H]3c4ccc(O)cc4C[C@@H](CCCCCCCCC[S+]([O-])CCCC(F)(F)C(F)(F)F)[C@H]3[C@@H]1CC[C@@H]2O (stereo partly specified) [fulvestrant]	0.0209
COc1cc(CNC(=O)CCCC/C=C/C(C)C)ccc1O [capsaicin]	-0.176
O=C(NCCCN1CCOCC1)c1ccc(Cl)cc1 [eprobemide]	0.257
COC(=O)c1c(OC)cc2c(c1C)Oc1c(Cl)c(O)c(Cl)c(C)c1C(=O)O2 [gangaleoidin]	0.0319
CO/N=C(\C(=O)N[C@@H]1C(=O)N2C(C(=O)O)=C(COC(C)=O)CS[C@H]12)c1csc(N)n1 [cefotaxime sodium]	-0.0177
C=C[C@](C)(O)CC[C@@H]1[C@@]2(C)CCCC(C)(C)[C@@H]2CC[C@@]1(C)O [sclareol]	0.11
O=C(/C=C/c1ccc(O)c(O)c1)O[C@H](Cc1ccc(O)c(O)c1)C(=O)O [rosmarinic acid]	-0.0963
COC(=O)[C@H](Cc1ccccc1)NC(=O)[C@@H](N)CC(=O)O [aspartame]	-1.6
COc1cc(O)c2c(=O)cc(C)oc2c1CC=C(C)C [heteropeucenin, methyl ether]	0.0752
OC[C@@H](O)[C@@H](O[C@@H]1O[C@H](CO)[C@@H](O)[C@H](O)[C@H]1O)[C@H](O)[C@@H](O)CO [glucitol-4-gucopyanoside]	0.072

Structural class: the entries above with a CF3 group (2)
SMILES	log
C[C@]12C=CC(=O)N[C@@H]1CC[C@@H]1[C@@H]2CC[C@]2(C)[C@@H](C(=O)Nc3cc(C(F)(F)F)ccc3C(F)(F)F)CC[C@@H]12 [dutasteride]	-0.0102
C[C@]12CC[C@@H]3c4ccc(O)cc4C[C@@H](CCCCCCCCC[S+]([O-])CCCC(F)(F)C(F)(F)F)[C@H]3[C@@H]1CC[C@@H]2O (stereo partly specified) [fulvestrant]	0.0209
